Experimental data taken from PMC8079276.
Results are given in words; binding and its absence hold for the method and conditions named. In cells and extracts the contact can be indirect. A yes stands for co-enrichment or nearness to the bait. Other partners may have been found. Where a sequence is shown, tags or fusion partners need not be part of it.

T1: UDP-N-acetylglucosamine-peptide N-acetylglucosaminyltransferase (mouse (endogenous in MEFs)) (UniProt Q8CGY8)
T1 sequence: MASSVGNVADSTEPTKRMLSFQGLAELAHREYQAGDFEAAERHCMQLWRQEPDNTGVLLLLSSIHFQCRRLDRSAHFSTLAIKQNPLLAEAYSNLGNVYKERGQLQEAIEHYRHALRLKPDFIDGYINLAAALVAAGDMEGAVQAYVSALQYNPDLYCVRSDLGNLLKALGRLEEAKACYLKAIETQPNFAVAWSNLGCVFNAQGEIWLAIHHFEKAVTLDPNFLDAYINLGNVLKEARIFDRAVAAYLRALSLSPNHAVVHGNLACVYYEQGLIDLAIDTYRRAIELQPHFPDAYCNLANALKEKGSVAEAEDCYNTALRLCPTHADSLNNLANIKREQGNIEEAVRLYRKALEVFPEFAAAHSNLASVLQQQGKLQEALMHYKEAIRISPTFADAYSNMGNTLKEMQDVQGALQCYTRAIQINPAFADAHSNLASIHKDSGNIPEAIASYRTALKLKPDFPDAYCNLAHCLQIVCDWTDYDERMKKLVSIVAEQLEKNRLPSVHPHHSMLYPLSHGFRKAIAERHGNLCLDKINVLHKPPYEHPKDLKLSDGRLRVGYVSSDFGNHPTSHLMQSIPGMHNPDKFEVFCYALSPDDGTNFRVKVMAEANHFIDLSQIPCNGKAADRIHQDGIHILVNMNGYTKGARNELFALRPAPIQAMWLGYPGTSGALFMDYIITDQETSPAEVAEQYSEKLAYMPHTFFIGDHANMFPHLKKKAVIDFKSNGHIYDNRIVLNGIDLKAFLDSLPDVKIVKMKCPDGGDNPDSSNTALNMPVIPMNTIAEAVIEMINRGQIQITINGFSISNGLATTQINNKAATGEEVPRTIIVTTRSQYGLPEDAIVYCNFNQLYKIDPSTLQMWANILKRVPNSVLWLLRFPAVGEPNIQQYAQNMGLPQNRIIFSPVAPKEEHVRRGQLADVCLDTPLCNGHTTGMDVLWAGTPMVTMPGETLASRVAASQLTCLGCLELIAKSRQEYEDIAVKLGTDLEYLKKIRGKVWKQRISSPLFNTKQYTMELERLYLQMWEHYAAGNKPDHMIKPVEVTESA

B1: Hdlbp (protein, UniProt Q8VDJ3 1-1268)
chain: MSSVAVLTQESFAEHRSGLVPQQIKVATLNSEEENDPPTYKDAFPPLPEKAACLESAQEPAGAWSNKIRPIKASVITQVFHVPLEERKYKDMNQFGEGEQAKICLEIMQRTGAHLELSLAKDQGLSIMVSGKLDAVMKARKDIVARLQTQASATVPIPKEHHRFVIGKNGEKLQDLELKTATKIQIPRPDDPSNQIKITGTKEGIEKARHEVLLISAEQDKRAVERLEVEKAFHPFIAGPYNRLVGEIMQETGTRINIPPPSVNRTEIVFTGEKEQLAQAVARIKKIYEEKKKKTTTIAVEVKKSQHKYVIGPKGNSLQEILERTGVSVEIPPSDSISETVILRGEPEKLGQALTEVYAKANSFTVSSVSAPSWLHRFIIGKKGQNLAKITQQMPKVHIEFTEGEDKITLEGPTEDVNVAQEQIEGMVKDLINRMDYVEINIDHKFHRHLIGKSGANINRIKDQYKVSVRIPPDSEKSNLIRIEGDPQGVQQAKRELLELASRMENERTKDLIIEQRFHRTIIGQKGERIREIRDKFPEVIINFPDPAQKSDIVQLRGPKNEVEKCTKYMQKMVADLVENSYSISVPIFKQFHKNIIGKGGANIKKIREESNTKIDLPAENSNSETIIITGKRANCEAARSRILSIQKDLANIAEVEVSIPAKLHNSLIGTKGRLIRSIMEECGGVHIHFPVEGSGSDTVVIRGPSSDVEKAKKQLLHLAEEKQTKSFTVDIRAKPEYHKFLIGKGGGKIRKVRDSTGARIIFPAAEDKDQDLITIIGKEDAVREAQKELEALIQNLENVVEDYMLVDPKHHRHFVIRRGQVLREIAEEYGGVMVSFPRSGTQSDKVTLKGAKDCVEAAKKRIQEIIEDLEAQVTVECAIPQKFHRSVMGPKGSRIQQITRDYNVQIKFPDREENPVHSVEPSIQENGDEAGEGREAKETDPGSPRRCDIIIISGRKEKCEAAKEALEALVPVTIEVEVPFDLHRYIIGQKGSGIRKMMDEFEVNIHVPAPELQSDTIAITGLAANLDRAKAGLLDRVKELQAEQEDRALRSFKLSVTVDPKYHPKIIGRKGAVITQIRLEHEVNIQFPDKDDGNQPQDQITITGYEKNTEAARDAILKIVGELEQMVSEDVPLDHRVHARIIGARGKAIRKIMDEFKVDIRFPQSGAPDPNCVTVTGLPENVEEAIDHILNLEEEYLADVVDSEALQVYMKPPAHEESRAPSKGFVVRDAPWTSNSSEKAPDMSSSEEFPSFGAQVAPKTLPWGPKR
B2: Kdm2b (protein, UniProt Q6P1G2 1-1309)
chain: MEAEKDSGRRLRAIDRQRYDENEDLSDVEEIVSVRGFSLEEKLRSQLYQGDFVHAMEGKDFNYEYVQREALRVPLVFRDKDGLGIKMPDPDFTVRDVKLLVGSRRLVDVMDVNTQKGTEMSMSQFVRYYETPEAQRDKLYNVISLEFSHTKLEHLVKRPTVVDLVDWVDNMWPQHLKEKQTEATNALAEMKYPKVKKYCLMSVKGCFTDFHIDFGGTSVWYHVFRGGKIFWLIPPTLHNLALYEEWVLSGKQSDIFLGDRVERCQRIELKQGYTFFIPSGWIHAVYTPVDSLVFGGNILHSFNVPMQLRIYEIEDRTRVQPKFRYPFYYEMCWYVLERYVYCVTQRSYLTQEYQRELMLIDAPRKTSVDGFSSDSWLDMEEESCEQQPQEEEEEEEDKEEEGDGADKTPKPPTDDPTSPTSTPPEDQDSTGKKPKAPAIRFLKRTLSNESEESVKSTSMPTDDPKTPTGSPATEVSTKWTHLTEFELKGLKALVEKLESLPENKKCVPEGIEDPQALLEGVKNVLKEHVDDDPTLAITGVPVVSWPKKTAKNRVVGRPKGKLGPASAVKLAANRTTAGARRRRTRCRKCEACLRTECGECHFCKDMKKFGGPGRMKQSCIMRQCIAPVLPHTAVCLVCGEAGKEDTVEEEEGKFNLMLMECSICNEIIHPGCLKIKESEGVVNDELPNCWECPKCNHAGKTGKQKRGPGFKYASNLPGSLLKEQKMNRDNKEGQEPAKRRSECEEAPRRRSDEHPKKVPADGILRRKSDDVHLRRKRKYEKPQELSGRKRASSLQTSPGSSSHLSPRPPLGSSLSPWWRSSLTYFQQQLKPGKEDKLFRKKRRSWKNAEDRLSLANKPLRRFKQEPEDDLPEAPPKTRESDQSRSSSPTAGPSTEGAEGPEEKKKVKMRRKRRLVNKELSKELSKELNHEIQKTESTLAHESQQPIKSEPESENDEPKRPLSHCERPHRFSKGLNGTPRELRHSLGPGLRSPPRVMSRPPPSASPPKCIQMERHVIRPPPISPPPDSLPLDDGAAHVMHREVWMAVFSYLSHRDLCVCMRVCRTWNRWCCDKRLWTRIDLNRCKSITPLMLSGIIRRQPVSLDLSWTNISKKQLSWLINRLPGLRDLVLSGCSWIAVSALCSSSCPLLRTLDVQWVEGLKDAQMRDLLSPPTDNRPGQMDNRSKLRNIVELRLAGLDITDVSLRLIIRHMPLLSKLQLSYCNHINDQSINLLTAVGTTTRDSLTEVNLSDCNKVTDLCLSFFKRCGNICHIDLRYCKQVTKEGCEQFIAEMSVSVQFGQVEEKLLQKLS
B3: Gtf2e2 (protein, UniProt Q9D902 1-292)
chain: MDPSLLRDRELFKKRALSTPVVEKRAVPSESPSSSSSKKKKAKVEHGGSSGSKQNSDHNNGSFNLKALSGSSGYKFGVLAKIVNYMKTRHQRGDTHPLTLEEILDETQHLDIGLKQKQWLMTEALVNNPKIEVVDGKYAFKPKYNLKDKKALLRLLDNHDQRGLGGILLEDIEEGLPNSQKAVKALGDQILFVSRPDKKKILFFNDKSCQFSVDEEFQKLWRSVTVDSMDEEKIEEYLKRQGISSMQESGPKKVASIQRRKKPASQKKRRFKTHNEHLAGVLKDYSDITPGK
B4: Pold1 (protein, UniProt P52431 1-1105)
chain: MDCKRRQGPGPGVPPKRARGHLWDEDEPSPSQFEANLALLEEIEAENRLQEAEEELQLPPEGTVGGQFSTADIDPRWRRPTLRALDPSTEPLIFQQLEIDHYVGSAPPLPEGPLPSRNSVPILRAFGVTDEGFSVCCHIQGFAPYFYTPAPPGFGAEHLSELQQELNAAISRDQRGGKELSGPAVLAIELCSRESMFGYHGHGPSPFLRITLALPRLMAPARRLLEQGVRVPGLGTPSFAPYEANVDFEIRFMVDADIVGCNWLELPAGKYVRRAEKKATLCQLEVDVLWSDVISHPPEGQWQRIAPLRVLSFDIECAGRKGIFPEPERDPVIQICSLGLRWGEPEPFLRLALTLRPCAPILGAKVQSYEREEDLLQAWADFILAMDPDVITGYNIQNFDLPYLISRAQALKVDRFPFLGRVTGLRSNIRDSSFQSRQVGRRDSKVISMVGRVQMDMLQVLLREHKLRSYTLNAVSFHFLGEQKEDVQHSIITDLQNGNEQTRRRLAVYCLKDAFLPLRLLERLMVLVNNVEMARVTGVPLGYLLTRGQQVKVVSQLLRQAMRQGLLMPVVKTEGSEDYTGATVIEPLKGYYDVPIATLDFSSLYPSIMMAHNLCYTTLLRPGAAQKLGLKPDEFIKTPTGDEFVKSSVRKGLLPQILENLLSARKRAKAELAQETDPLRRQVLDGRQLALKVSANSVYGFTGAQVGKLPCLEISQSVTGFGRQMIEKTKQLVESKYTVENGYDANAKVVYGDTDSVMCRFGVSSVAEAMSLGREAANWVSSHFPSPIRLEFEKVYFPYLLISKKRYAGLLFSSRSDAHDKMDCKGLEAVRRDNCPLVANLVTSSLRRILVDRDPDGAVAHAKDVISDLLCNRIDISQLVITKELTRAAADYAGKQAHVELAERMRKRDPGSAPSLGDRVPYVIIGAAKGVAAYMKSEDPLFVLEHSLPIDTQYYLEQQLAKPLLRIFEPILGEGRAESVLLRGDHTRCKTVLTSKVGGLLAFTKRRNCCIGCRSVIDHQGAVCKFCQPRESELYQKEVSHLNALEERFSRLWTQCQRCQGSLHEDVICTSRDCPIFYMRKKVRKDLEDQERLLQRFGPPGPEAW
B5: Protein transport protein Sec24C isoform X1 (protein, UniProt G3X972 1-1096)
chain: MNVNQSAPPVPPYGQNQPIYPGYHQSSYGGQPGPAAPATPYGAYNGPVPGYQQAPPQGVPRAPPSSGAPPASAAQVPCGQTTYGQFGQGDIQNGPSSTAQMQRVPGSQQFGPPLAPVVSQPAVLQPYGPPPTSTQVTAQLAGMQISGAVAQAPPPSGLGYGPPTSLASASGNFPNSGPYGSYPQSQAPPLSQAQGHPGVQPPLRSAPPLASSFTSPASGGPQMPSMTGLLPPGQGFGSLPVNQANHVSSPPAPALPPGTQMTGPPVPPPPPMHSPQQPGYQLQQNGSFGPARGPQPNYESPYPGAPTFGSQPGPPQPLPPKRLDPDAIPSPIQVIEDDRNNRGSEPFVTGVRGQVPPLVTTNFLVKDQGNASPRYIRCTSYNIPCTSDMAKQAQVPLAAVIKPLARLPPEEASPYVVDHGESGPLRCNRCKAYMCPLMTFIEGGRRFQCSFCSCVNDVPPQYFQHLDHTGKRVDAYDRPELSLGSYEFLATVDYCKNNKFPSPPAFIFMIDVSYNAIRTGLVRLLCEELKSLLDYLPREGGAEESAIRVGFVTYNKVLHFYNVKSSLAQPQMMVVSDVADMFVPLLDGFLVNVSESRAVITSLLDQIPEMFADTRETETVFAPVIQAGMEALKAAECAGKLFLFHTSLPIAEAPGKLKNRDDRKLINTDKEKTLFQPQTGTYQTLAKECVAQGCCVDLFLFPNQYVDVATLSVVPQLTGGSVYKYACFQVENDQERFLSDLRRDVQKVVGFDAVMRVRTSTGIRAVDFFGAFYMSNTTDVELAGLDGDKTVTVEFKHDDRLNEENGALLQCALLYTSCAGQRRLRIHNLALNCCTQLADLYRNCETDTLINYMAKFAYRAVLNSPVKTVRDTLITQCAQILACYRKNCASPSSAGQLILPECMKLLPVYLNCVLKSDVLQPGAEVTTDDRAYVRQLVSSMDVAETNVFFYPRLLPLTKSPLDSTAEPPAVRASEERLSSGDIYLLENGLNLFVWVGASVQQGVVQSLFNVSSFSQITSGLSVLPVLDNPLSKKVRGLIDSLRAQRMRYMKLIVVKQEDKLEMLFKHFLVEDKSLSGGASYVDFLCHMHKEIRQLLS

Target: T1, UDP-N-acetylglucosamine-peptide N-acetylglucosaminyltransferase (mouse (endogenous in MEFs))
Assay: affinity purification with mass spectrometry; endogenous OGT immunoprecipitated (antibody AL24, protein G magnetic beads, TCL buffer: 50 mM Tris HCl, 150 mM NaCl, pH 7.5, 1% NP-40, 2 mM EDTA) from a 1:1:1 mix of SILAC-labelled lysates of WT, H2O2-treated (2.5 mM, 1.5 h) and OGT-null MEFs, precleared with rabbit IgG; in-gel trypsin digestion, LC-MS/MS; interactor if log2 WT or H2O2/null >=1 in 2 or more replicates

Row | binding | Binder
1 | binds | B1
2 | binds | B2
3 | binds | B3
4 | binds | B4
5 | binds | B5
